This is an account of results in PMC12979858.

This experiment addresses WDR47 C-terminal WD40 repeats-containing region (Flag-tagged fragment) (mouse). As to the kind of experiment: co-IP; HEK293T cells exogenously expressing the tagged proteins; high-salt lysis buffer (1% NP-40, 500 mM NaCl, 50 mM HEPES pH 7.8, 5 mM EDTA); anti-GFP or anti-Flag agarose beads, 4 C, 4 h; immunoblot.

No constants are given. Whether binding was seen depends on the method and setting. In cells and extracts the contact can be indirect. A result given as binding can be weak or reduced; the word gives no strength. Tags and fused reporters may be left off the sequences shown.

B1: SPEF1 (tagged, expressed in HEK293T) (protein, UniProt Q99JL1 1-234)
chain: MESSVDEEALHQLYLWVDNIPLSRPKRNLSRDFSDGVLVAELIKFYFPKMVEMHNYVPANSLQQKLSNWGHLNRKVLNKLNFSVPDDVMRKIAQCSPGVVELVLIPLRQRLEERQRRQKLGVGSLQELAPQDSSGYMDMGLPQKVRGEGAPALGEQLREGRPLASRPPGYNQALQGDPSFVLQIAEKEQELLASQETVQVLQMKVKRLEHLLQLKNVRIDDLSRRLQQAERKQR
Take B1: the binding entry is recorded as “binds”.
